Measurements as given in the supplement of paper PMC10849652.
The list shows a part of the results.

The chains behind the UniProt entries cited, without tags or fusion partners. Where a name states a change or a piece, a line headed by the entry shows the natural chain unless it says otherwise.
UniProt Q92604: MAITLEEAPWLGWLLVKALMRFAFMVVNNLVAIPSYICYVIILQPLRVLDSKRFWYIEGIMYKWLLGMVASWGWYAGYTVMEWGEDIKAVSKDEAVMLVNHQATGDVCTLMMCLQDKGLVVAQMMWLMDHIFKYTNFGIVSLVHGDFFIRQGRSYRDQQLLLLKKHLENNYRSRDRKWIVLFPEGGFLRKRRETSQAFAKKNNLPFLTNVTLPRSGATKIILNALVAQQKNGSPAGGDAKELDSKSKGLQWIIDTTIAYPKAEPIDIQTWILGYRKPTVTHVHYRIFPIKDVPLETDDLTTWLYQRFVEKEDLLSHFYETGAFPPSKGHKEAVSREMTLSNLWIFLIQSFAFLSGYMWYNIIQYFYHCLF
UniProt Q9GZZ8: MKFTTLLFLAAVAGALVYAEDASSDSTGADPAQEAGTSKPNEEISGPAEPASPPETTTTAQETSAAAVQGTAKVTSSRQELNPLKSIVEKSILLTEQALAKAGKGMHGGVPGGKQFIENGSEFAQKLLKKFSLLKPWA
UniProt O75197: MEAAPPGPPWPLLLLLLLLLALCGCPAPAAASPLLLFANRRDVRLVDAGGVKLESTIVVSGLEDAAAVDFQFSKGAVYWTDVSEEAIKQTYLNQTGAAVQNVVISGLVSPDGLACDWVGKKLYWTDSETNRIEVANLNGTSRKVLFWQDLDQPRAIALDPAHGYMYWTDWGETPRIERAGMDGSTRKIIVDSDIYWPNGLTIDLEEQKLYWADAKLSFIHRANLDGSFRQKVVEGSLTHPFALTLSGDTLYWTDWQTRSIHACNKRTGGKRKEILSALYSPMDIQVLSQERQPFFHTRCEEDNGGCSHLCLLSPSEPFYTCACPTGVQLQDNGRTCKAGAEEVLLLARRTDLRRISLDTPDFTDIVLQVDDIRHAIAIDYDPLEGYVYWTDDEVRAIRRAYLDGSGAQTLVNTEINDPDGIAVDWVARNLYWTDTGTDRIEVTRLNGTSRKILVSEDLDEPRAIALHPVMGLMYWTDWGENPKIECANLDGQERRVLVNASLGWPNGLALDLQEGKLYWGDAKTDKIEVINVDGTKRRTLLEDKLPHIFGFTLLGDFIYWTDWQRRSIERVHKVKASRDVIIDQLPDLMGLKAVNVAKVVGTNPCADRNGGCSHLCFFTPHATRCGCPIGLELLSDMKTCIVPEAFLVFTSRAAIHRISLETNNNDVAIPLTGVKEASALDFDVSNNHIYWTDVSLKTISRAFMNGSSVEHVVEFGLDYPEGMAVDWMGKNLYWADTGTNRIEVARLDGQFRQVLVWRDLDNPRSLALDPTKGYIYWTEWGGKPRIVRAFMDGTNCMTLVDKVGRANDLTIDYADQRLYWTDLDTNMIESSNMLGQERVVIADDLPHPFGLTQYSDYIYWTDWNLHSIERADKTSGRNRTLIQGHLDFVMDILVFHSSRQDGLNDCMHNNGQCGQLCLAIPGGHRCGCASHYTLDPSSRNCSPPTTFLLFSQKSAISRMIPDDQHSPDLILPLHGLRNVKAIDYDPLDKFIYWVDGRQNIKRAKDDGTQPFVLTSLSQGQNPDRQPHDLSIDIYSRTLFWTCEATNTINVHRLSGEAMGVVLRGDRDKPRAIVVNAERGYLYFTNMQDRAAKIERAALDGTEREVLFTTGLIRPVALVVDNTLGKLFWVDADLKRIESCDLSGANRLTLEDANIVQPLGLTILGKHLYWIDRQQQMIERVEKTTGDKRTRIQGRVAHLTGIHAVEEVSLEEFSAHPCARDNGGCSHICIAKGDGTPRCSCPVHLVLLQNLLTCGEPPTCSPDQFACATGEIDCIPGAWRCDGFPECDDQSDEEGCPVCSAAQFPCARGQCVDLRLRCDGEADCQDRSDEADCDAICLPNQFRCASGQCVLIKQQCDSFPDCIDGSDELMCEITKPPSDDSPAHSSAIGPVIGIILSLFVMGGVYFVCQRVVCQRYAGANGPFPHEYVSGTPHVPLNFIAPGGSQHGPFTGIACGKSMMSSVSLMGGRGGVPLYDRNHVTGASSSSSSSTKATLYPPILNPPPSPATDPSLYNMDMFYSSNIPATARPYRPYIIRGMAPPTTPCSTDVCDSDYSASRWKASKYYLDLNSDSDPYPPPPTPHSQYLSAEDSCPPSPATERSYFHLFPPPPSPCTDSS
UniProt P49916: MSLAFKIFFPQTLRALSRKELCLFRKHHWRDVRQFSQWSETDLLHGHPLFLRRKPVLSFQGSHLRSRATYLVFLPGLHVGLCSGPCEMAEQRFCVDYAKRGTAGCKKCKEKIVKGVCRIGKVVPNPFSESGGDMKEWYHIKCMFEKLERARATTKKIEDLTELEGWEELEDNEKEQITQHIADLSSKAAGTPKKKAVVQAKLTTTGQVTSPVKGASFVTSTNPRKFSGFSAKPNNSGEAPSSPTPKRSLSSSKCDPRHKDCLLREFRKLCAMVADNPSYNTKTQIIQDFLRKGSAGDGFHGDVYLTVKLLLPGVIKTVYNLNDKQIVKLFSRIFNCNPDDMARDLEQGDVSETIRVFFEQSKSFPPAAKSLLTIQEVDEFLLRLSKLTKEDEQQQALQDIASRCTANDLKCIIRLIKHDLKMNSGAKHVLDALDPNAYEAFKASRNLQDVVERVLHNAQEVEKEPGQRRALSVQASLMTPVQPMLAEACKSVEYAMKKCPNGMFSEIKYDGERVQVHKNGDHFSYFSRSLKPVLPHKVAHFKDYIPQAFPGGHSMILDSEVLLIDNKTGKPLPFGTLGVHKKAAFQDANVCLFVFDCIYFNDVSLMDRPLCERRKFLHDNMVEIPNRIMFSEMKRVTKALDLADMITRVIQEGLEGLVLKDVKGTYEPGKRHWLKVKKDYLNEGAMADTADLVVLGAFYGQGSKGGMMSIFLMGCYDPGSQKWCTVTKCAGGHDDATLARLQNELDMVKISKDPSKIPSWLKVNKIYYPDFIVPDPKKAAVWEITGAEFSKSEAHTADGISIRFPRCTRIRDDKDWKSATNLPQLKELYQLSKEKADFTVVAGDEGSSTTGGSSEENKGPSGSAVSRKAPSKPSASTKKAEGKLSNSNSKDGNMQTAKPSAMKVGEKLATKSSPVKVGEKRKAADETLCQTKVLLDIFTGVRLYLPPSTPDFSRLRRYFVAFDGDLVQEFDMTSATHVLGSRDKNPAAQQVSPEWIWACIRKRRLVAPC
UniProt Q5TKA1: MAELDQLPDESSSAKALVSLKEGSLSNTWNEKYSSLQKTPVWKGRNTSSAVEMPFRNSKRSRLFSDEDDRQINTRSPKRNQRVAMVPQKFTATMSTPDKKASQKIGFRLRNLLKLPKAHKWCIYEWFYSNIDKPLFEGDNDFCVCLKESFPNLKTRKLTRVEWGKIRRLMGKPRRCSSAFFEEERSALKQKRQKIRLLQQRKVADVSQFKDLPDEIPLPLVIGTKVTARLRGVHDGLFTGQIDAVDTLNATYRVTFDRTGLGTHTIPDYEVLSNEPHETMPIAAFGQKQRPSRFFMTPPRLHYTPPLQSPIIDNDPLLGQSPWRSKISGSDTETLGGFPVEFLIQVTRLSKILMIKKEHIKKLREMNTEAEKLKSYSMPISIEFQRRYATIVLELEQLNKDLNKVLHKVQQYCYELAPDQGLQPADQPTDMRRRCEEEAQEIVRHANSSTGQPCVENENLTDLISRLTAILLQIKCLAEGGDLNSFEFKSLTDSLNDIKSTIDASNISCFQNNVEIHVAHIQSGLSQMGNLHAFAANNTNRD
UniProt Q6ZV70: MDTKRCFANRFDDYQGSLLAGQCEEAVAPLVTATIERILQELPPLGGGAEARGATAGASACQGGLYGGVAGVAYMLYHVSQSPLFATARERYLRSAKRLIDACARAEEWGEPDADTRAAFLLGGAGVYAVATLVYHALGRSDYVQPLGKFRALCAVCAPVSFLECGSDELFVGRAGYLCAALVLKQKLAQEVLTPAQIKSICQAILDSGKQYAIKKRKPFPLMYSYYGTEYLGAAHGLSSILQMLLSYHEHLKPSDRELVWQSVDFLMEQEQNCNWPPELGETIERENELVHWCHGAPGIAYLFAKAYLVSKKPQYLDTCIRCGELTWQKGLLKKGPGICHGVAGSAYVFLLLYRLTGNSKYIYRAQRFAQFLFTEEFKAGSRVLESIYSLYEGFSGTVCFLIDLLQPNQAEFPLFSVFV
UniProt Q9BQD3: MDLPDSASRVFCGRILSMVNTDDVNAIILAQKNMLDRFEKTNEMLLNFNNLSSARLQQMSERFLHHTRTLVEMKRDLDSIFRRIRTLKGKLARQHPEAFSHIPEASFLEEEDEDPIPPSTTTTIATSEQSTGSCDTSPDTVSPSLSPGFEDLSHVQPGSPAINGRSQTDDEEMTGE
UniProt Q93052: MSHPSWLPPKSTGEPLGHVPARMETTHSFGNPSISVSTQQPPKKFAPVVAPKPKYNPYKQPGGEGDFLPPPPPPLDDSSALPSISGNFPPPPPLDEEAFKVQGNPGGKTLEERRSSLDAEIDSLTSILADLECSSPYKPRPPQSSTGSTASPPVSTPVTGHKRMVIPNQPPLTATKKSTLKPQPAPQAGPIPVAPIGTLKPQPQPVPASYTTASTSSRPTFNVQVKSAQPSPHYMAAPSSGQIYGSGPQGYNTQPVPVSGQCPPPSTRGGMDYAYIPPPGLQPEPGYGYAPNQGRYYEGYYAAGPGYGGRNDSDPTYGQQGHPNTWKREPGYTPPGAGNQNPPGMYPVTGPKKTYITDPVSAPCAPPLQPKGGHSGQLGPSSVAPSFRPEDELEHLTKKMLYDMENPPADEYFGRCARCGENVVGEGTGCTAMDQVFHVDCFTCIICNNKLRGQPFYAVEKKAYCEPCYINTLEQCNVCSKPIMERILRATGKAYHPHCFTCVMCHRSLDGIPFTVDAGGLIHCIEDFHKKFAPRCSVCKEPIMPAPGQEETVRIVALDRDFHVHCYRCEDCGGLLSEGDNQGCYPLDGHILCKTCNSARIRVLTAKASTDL
UniProt P11047: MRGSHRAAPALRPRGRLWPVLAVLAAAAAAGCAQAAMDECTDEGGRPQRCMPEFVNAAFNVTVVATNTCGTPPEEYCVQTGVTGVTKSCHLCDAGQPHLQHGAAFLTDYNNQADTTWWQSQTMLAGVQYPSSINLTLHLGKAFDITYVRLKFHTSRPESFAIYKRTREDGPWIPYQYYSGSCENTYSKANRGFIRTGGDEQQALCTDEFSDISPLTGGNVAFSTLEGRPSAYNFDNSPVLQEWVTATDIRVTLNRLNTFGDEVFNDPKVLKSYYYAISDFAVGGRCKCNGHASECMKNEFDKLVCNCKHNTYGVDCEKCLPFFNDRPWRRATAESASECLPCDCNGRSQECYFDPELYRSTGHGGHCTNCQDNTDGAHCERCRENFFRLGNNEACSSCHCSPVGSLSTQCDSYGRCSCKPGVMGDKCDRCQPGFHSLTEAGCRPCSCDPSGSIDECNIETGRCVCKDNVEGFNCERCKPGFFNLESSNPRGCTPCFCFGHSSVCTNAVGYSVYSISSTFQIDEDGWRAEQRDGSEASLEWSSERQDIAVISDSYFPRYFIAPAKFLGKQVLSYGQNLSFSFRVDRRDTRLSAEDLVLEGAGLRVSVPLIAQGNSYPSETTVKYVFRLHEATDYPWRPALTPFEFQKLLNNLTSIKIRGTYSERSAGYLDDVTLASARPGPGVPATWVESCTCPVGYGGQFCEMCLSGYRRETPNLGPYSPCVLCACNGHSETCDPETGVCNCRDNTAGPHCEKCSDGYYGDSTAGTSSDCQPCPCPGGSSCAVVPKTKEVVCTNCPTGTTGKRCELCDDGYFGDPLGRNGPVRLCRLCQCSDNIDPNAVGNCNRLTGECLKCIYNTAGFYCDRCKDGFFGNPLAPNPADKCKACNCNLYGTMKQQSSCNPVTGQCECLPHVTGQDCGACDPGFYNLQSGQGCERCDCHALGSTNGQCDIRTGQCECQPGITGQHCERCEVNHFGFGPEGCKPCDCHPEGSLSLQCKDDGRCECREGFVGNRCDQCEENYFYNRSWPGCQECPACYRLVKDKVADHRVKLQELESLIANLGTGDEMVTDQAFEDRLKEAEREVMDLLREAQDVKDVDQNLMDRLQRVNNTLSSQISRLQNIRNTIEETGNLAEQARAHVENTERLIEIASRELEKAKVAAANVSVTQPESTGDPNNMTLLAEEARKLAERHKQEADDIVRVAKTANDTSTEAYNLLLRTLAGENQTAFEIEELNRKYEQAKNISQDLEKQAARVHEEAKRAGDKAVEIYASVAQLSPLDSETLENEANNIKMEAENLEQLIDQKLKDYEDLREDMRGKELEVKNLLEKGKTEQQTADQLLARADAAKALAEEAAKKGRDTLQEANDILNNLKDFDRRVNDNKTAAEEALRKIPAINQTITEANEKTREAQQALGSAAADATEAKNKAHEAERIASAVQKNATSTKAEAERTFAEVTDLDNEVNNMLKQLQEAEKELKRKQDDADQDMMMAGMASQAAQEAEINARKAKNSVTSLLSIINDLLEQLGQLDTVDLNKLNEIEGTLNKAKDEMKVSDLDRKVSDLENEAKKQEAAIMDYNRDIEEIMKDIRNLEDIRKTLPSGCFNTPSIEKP

Columns and labels:
Assay in all cases: log2 fold change, soluble protein after heating vs DMSO (PISA); higher = thermal stabilisation; K562 cells, 10 uM, 30 min; active = over 0.2 and 3.5 SD of the protein, either way, in both replicates (recomputed)
bafetinib = compound: Cc1ccc(NC(=O)c2ccc(CN3CC[C@H](N(C)C)C3)c(C(F)(F)F)c2)cc1Nc1nccc(-c2cncnc2)n1 [bafetinib]
Summary of the method: (§1)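 K562 cells (2×10^6 cells/mL) were treated with 10 μM compound for 30 min, and aliquots were heated for 3 min over 48°C-58°C. Pooled aliquots were extracted in PBS with 0.5% NP-40 at 4°C, and the supernatant after 21,000xg for 90 min was measured by TMTpro 16plex LC-MS/MS with channel sums equalised. Reported thermal stability, relative to control samples and from duplicates, is a log2 fold change.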

nilotinib = compound: Cc1cn(-c2cc(NC(=O)c3ccc(C)c(Nc4nccc(-c5cccnc5)n4)c3)cc(C(F)(F)F)c2)cn1 [nilotinib]
Summary of the method: as §1

[1] = compound: Cc1nc(Nc2n[nH]c3c2CN(C(=O)N[C@H](CN(C)C)c2ccccc2)C3(C)C)c2sccc2n1
Summary of the method: as §1

dasatinib = compound: Cc1nc(Nc2ncc(C(=O)Nc3c(C)cccc3Cl)s2)cc(N2CCN(CCO)CC2)n1 [dasatinib]
Summary of the method: as §1

[2] = compound: Cc1ncc(-c2ccnc(Nc3ccc(S(C)(=O)=O)cc3)n2)n1C(C)C
Summary of the method: as §1

[3] = compound: Cn1cc(-c2ccc3c(c2)CCN3C(=O)Cc2cccc(C(F)(F)F)c2)c2c(N)ncnc21
Summary of the method: as §1

[4] = compound: Cn1cc(-c2ccc3nnc(C(F)(F)c4ccc5ncccc5c4)n3n2)cn1
Summary of the method: as §1

tipifarnib = compound: Cn1cncc1[C@@](N)(c1ccc(Cl)cc1)c1ccc2c(c1)c(-c1cccc(Cl)c1)cc(=O)n2C [tipifarnib]
Summary of the method: as §1

mubritinib = compound: FC(F)(F)c1ccc(/C=C/c2nc(COc3ccc(CCCCn4ccnn4)cc3)co2)cc1 [mubritinib]
Summary of the method: as §1

[5] = compound: NC(=O)Nc1cc(-c2cccc(F)c2)sc1C(=O)N[C@H]1CCCNC1
Summary of the method: as §1

[6] = compound: NC(=O)c1cnc(N[C@@H]2CCCC[C@@H]2N)nc1Nc1cccc(-n2nccn2)c1
Summary of the method: as §1

[7] = compound: NC1(c2ccc(-c3nc4ccn5c(=O)[nH]nc5c4cc3-c3ccccc3)cc2)CCC1
Summary of the method: as §1

[8] = compound: NCC(=O)Nc1ccc(-n2nc(C(F)(F)F)cc2-c2ccc3c(ccc4ccccc43)c2)cc1
Summary of the method: as §1

entinostat = compound: Nc1ccccc1NC(=O)c1ccc(CNC(=O)OCc2cccnc2)cc1 [entinostat]
Summary of the method: as §1

citarinostat = compound: O=C(CCCCCCNC(=O)c1cnc(N(c2ccccc2)c2ccccc2Cl)nc1)NO [citarinostat]
Summary of the method: as §1

silmitasertib = compound: O=C(O)c1ccc2c(c1)nc(Nc1cccc(Cl)c1)c1ccncc12 [silmitasertib]
Summary of the method: as §1

[9] = compound: O=C1NC(=O)C(c2cnc3ccccn23)=C1c1cn2c3c(cc(F)cc13)CN(C(=O)N1CCCCC1)CC2
Summary of the method: as §1

[10] = compound: c1cc(OCCN2CCCCC2)cc(-c2n[nH]c3ccc(-c4nnc[nH]4)cc23)c1
Summary of the method: as §1

[11] = compound: Cc1cccc(CC(=O)N2CCc3c2ccc(-c2cn(C)c4ncnc(N)c24)c3F)n1
Summary of the method: as §1

vorinostat = compound: O=C(CCCCCCC(=O)Nc1ccccc1)NO [vorinostat]
Summary of the method: as §1

| Target | log2 fold change (bafetinib) | log2 fold change (nilotinib) | log2 fold change [1] | log2 fold change (dasatinib) | log2 fold change [2] | log2 fold change [3] | log2 fold change [4] | log2 fold change (tipifarnib) | log2 fold change (mubritinib) | log2 fold change [5] | log2 fold change [6] | log2 fold change [7] | log2 fold change [8] | log2 fold change (entinostat) | log2 fold change (citarinostat) | log2 fold change (silmitasertib) | log2 fold change [9] | log2 fold change [10] | log2 fold change [11] | log2 fold change (vorinostat) |
| --- | --- | --- | --- | --- | --- | --- | --- | --- | --- | --- | --- | --- | --- | --- | --- | --- | --- | --- | --- | --- |
| LPGAT1 (UniProt Q92604) | inactive: -0.086 | inactive: -0.04 | inactive: -0.128 | inactive: 0.086 | inactive: 0.048 | inactive: 0.055 | inactive: -0.082 | inactive: 0.01 | inactive: 0.067 | inactive: 0.038 | inactive: 0.048 | inactive: -0.102 | inactive: 0.063 | inactive: -0.047 | inactive: 0.157 | inactive: -0.015 | inactive: -0.015 | inactive: -0.108 | – | – |
| LACRT (UniProt Q9GZZ8) | inactive: 0.654 | inactive: -0.196 | inactive: 0.165 | – | inactive: 0.31 | inactive: 0 | inactive: 0.233 | – | inactive: 0.039 | inactive: 0.298 | inactive: 0.301 | inactive: -0.143 | inactive: 0.133 | inactive: 0.095 | inactive: 0.369 | inactive: -0.062 | inactive: -0.746 | inactive: 0.348 | – | – |
| LOX (UniProt P28300) | active: -0.734 | inactive: -0.183 | inactive: 0.175 | – | inactive: 0.12 | – | – | – | inactive: -0.017 | – | – | inactive: -0.086 | – | – | – | inactive: 0.187 | – | – | – | – |
| LRP5 (UniProt O75197) | – | inactive: -0.131 | inactive: 0.089 | inactive: 0.115 | inactive: -0.011 | inactive: -0.027 | – | inactive: 0.087 | – | – | – | – | inactive: -0.074 | – | – | – | inactive: -0.003 | – | inactive: -0.013 | inactive: -0.113 |
| LIG3 (UniProt P49916) | – | inactive: 0.068 | inactive: 0.069 | inactive: 0.017 | inactive: -0.025 | inactive: 0.17 | – | inactive: 0.09 | inactive: 0.183 | inactive: 0.019 | inactive: 0.125 | inactive: -0.024 | – | inactive: -0.015 | – | inactive: -0.021 | – | – | inactive: -0.243 | inactive: -0.102 |
| LIN9 isoform 2 (UniProt Q5TKA1) | inactive: 0.095 | – | – | – | – | inactive: -0.018 | inactive: -0.032 | – | – | inactive: 0.095 | inactive: -0.159 | – | inactive: 0.085 | inactive: 0.015 | inactive: -0.322 | – | inactive: 0.038 | inactive: -0.217 | – | – |
| LANCL3 (UniProt Q6ZV70) | inactive: 0.035 | inactive: -0.182 | inactive: 0.121 | inactive: -0.114 | inactive: -0.063 | inactive: -0.011 | – | – | – | inactive: 0.116 | inactive: 0.031 | – | – | inactive: -0.158 | – | – | inactive: -0.029 | – | – | – |
| LGALS8 isoform 2 (UniProt O00214) | inactive: 0.107 | – | – | inactive: 0.013 | – | inactive: -0.253 | – | – | inactive: -0.186 | inactive: -0.053 | inactive: -0.096 | inactive: 0.179 | inactive: 0.055 | inactive: 0.091 | inactive: 0.051 | inactive: 0.147 | inactive: 0.121 | inactive: -0.129 | inactive: 0.079 | inactive: 0.078 |
| KXD1 (UniProt Q9BQD3) | inactive: -0.131 | – | – | inactive: -0.082 | – | inactive: 0.019 | inactive: 0.085 | inactive: 0.024 | inactive: 0.052 | – | inactive: -0.091 | inactive: -0.237 | inactive: -0.021 | – | inactive: 0.042 | inactive: -0.113 | inactive: 0.131 | inactive: -0.055 | inactive: 0.045 | inactive: -0.046 |
| LPP (UniProt Q93052) | inactive: -0.169 | inactive: 0.114 | inactive: 0.034 | – | inactive: 0.15 | – | – | – | – | inactive: -0.144 | – | – | – | inactive: -0.038 | – | – | inactive: -0.009 | – | – | – |
| LAMC1 (UniProt P11047) | – | – | – | inactive: -0.536 | – | – | – | – | – | – | – | – | – | – | – | – | – | – | inactive: -0.045 | inactive: 0.035 |
| LEPROT (UniProt O15243) | – | – | – | inactive: 0.188 | – | inactive: -0.193 | – | – | inactive: 0.041 | – | inactive: -0.161 | inactive: -0.088 | – | – | inactive: 0.125 | inactive: 0.005 | inactive: 0.261 | inactive: -0.072 | inactive: 0.03 | inactive: -0.142 |
